Measurements published in patent US20070098718A1 (Novartis, published 2007).
Results are given in words; binding and its absence hold for the method and conditions named. Binding seen in cells or lysates may run through a third protein. Some results given as binding are weak or reduced against the parent protein; the word gives no strength.

The chains behind the UniProt entries cited, without tags or fusion partners. Where a name states a change or a piece, a line headed by the entry shows the natural chain unless it says otherwise.
UniProt P25942: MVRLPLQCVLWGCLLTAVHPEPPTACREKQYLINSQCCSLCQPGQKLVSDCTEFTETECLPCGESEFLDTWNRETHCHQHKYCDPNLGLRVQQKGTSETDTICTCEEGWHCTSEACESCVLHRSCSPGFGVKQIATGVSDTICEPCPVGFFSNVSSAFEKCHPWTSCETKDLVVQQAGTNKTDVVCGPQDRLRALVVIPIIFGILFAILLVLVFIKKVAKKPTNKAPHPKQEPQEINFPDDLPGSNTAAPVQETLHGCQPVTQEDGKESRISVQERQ

Target: human CD40 (cell-surface CD40) (human) (UniProt P25942)
Experiment: co-immunoprecipitation with polyclonal anti-CD40 from normal human B cells, Western blot

B1: TRAF2 (protein, human, UniProt Q12933 2-501, looked up)
chain: AAASVTPPGSLELLQPGFSKTLLGTKLEAKYLCSACRNVLRRPFQAQCGHRYCSFCLASILSSGPQNCAACVHEGIYEEGISILESSSAFPDNAARREVESLPAVCPSDGCTWKGTLKEYESCHEGRCPLMLTECPACKGLVRLGEKERHLEHECPERSLSCRHCRAPCCGADVKAHHEVCPKFPLTCDGCGKKKIPREKFQDHVKTCGKCRVPCRFHAIGCLETVEGEKQQEHEVQWLREHLAMLLSSVLEAKPLLGDQSHAGSELLQRCESLEKKTATFENIVCVLNREVERVAMTAEACSRQHRLDQDKIEALSSKVQQLERSIGLKDLAMADLEQKVLEMEASTYDGVFIWKISDFARKRQEAVAGRIPAIFSPAFYTSRYGYKMCLRIYLNGDGTGRGTHLSLFFVVMKGPNDALLRWPFNQKVTLMLLDQNNREHVIDAFRPDVTSSSFQRPVNDMNIASGCPLFCPVSKMEAKNSYVRDDAIFIKAIVDLTGL
binding: binds
